107 sequences from PubChem BioAssay AID1508600 (Functional Genomics Laboratory (NCATS/FGL), 2020) can be followed below.

Hit rate of the full screen: of about 53,000 sequences, about 3,700 (7%) were called active.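 The calls were made as follows: active = gene knockdowns whose robust z-score for IL-1 alpha signal is at least 2 or at most -2, so actives lie on both sides; inactive = the rest.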 Some of the results follow.

The experiment is described as follows: Components of the Cytosolic LPS Sensing Pathway: Gene Identification via Genome-wide siRNA Screen.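 Also: robust z of the log signal after scaling to non-targeting control siRNA wells of the plate.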 The conditions noted are these: RAW264.7 macrophages, IL-1a HTRF, actives lie on both sides, screened at 100 nM (by protocol), cells primed 5 h with Pam3CSK4 first. The procedure, abridged:
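RAW264.7; siRNA 100 nM final, RNAiMAX, 48h 37 degrees C; Pam3CSK4 5 h; LipidA + TransIT-TKO 24 h; IL-1a HTRF; CellTiter-Glo viability; robust z vs negative-control median.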
On to GCAAUGUUCAAUAUCCAAGTT against Fut9, for which the z-score was inactive: 1.11.

As to CCCUCGACUUCUUACUGUCTT against Scyl2, the z-score was inactive: -0.369.

With GCCAUCCGAUGCCUUAAUUTT against Mtap, the z-score was inactive: -0.807.

Turning to GGAUCAUGAUUAGUUACAATT against Pdzrn3, the z-score was inactive: -1.05.

Consider GGUCAUUCUAGUCCAGGAUTT against Pkd1l2, for which the z-score was inactive: -1.68.

With “GGUUCUCUGAAAUAAACUUTT against 9530002B09Rik”, the z-score was inactive: 0.888.

On to CCCUGACUAUACGUAUAACTT against Selplg, for which the z-score is inactive: -1.52.

Consider CGGUAUCUACAUCAUAAACTT against Rpsa, for which the z-score is inactive: 0.172.

Consider GGUGUACGUCCUACAAGGUTT against Pofut2, for which the z-score is inactive: 0.0999.

For the sequence GGACUUGAGUCAGCUCAUCTT against Fastk, the z-score was inactive: -1.38.

For the sequence GCCGACAGUUAAGUUUCUCTT against Supt3, the z-score is inactive: -0.265.

On to CCCUCAACCUGCAUUUUAATT against Lgals2, for which the z-score is inactive: -0.861.

Consider CGUGCUUUCAUGUUCCCUATT against Mfsd2a, for which the z-score is inactive: 0.054.

Regarding GGAACAAAAAUGUUGACCATT against Trub1, the z-score is inactive: 1.26.

On to GCACCACACGGAUGAGUUUTT against Tgm1, for which the z-score is inactive: 1.33.

For the sequence GCAGUGUGAACAAUUGAGATT against Mpl, the z-score was inactive: -0.0939.

On to GGAUAUUCUUCCUCUCUUUTT against Pramel20, for which the z-score was inactive: -0.224.

In the case of GGCCAAAGAGGAGGAAAACTT against Ccdc92, the z-score was inactive: -0.428.

Take GGAGGUCGCUACCUUCUAUTT against Top1mt: the z-score is inactive: -0.795.

Consider CGAUGACGAAUACAACCGGTT against Nkx6-2, for which the z-score is inactive: -0.363.

Turning to ACAACUAUACUGGACAGUCTT against Olfr329, the z-score is inactive: 0.669.

Take GGAACCUUAAAGAUAGAUUTT against Npepps: the z-score is inactive: 1.16.

On to GGAUUAAAAUACCUUCACGTT against Map3k5, for which the z-score is inactive: -0.568.

GCCGACGUAGUGACAUUCUTT against Crybb3: the z-score was inactive: 1.45.

In the case of GGACUGGUUCUUCAGAUCCTT against Depp1, the z-score is active: 3.31.

Take GCAGUACAAAACCAAGCGGTT against Slc1a1: the z-score was inactive: 1.56.

In the case of GGGUAGGUUAGGGAGUAAATT against Siah1a, the z-score was inactive: -0.94.

For GGUUCUUAGCCUUAACCAUTT against Ttc39b, the z-score is inactive: 0.593.

Take GGAAAGAGAUACAGAAUCUTT against Brca2: the z-score is inactive: 0.302.

Take CCGGAUCCUGGUUAAAAGUTT against Fgd1: the z-score was inactive: -0.445.

GCUCCGUAAGAAGUCUCGUTT against Dhx16: the z-score is inactive: -0.676.

As to GCCACCAAACGAUGGUAUCTT against Ficd, the z-score was inactive: 0.413.

In the case of UUAAGGUCACCUUCAAUGCTT against Cox11, the z-score was inactive: 0.349.

On to GGUUAGUUUGUUCAAAUCCTT against Slc6a3, for which the z-score is inactive: 1.31.

As to GGCAGCAGGAUGCAGAAAUTT against Ngef, the z-score is active: -2.43.

Regarding GGUAUUUUGACCGAAUCAATT against Add3, the z-score is inactive: -0.294.

Turning to GGAGUCUUUAGUGACAUCCTT against AW549877, the z-score is inactive: -0.506.

Turning to CGGUCCCAAACGGUCAAGUTT against Tafa2, the z-score is inactive: 1.69.

For GCCUUUUCAAAACACUUUCTT against Zfp935, the z-score is inactive: 0.249.

As to GCAAGUCUGCUAAAGGAUUTT against Taf5l, the z-score was inactive: -1.86.

For the sequence GGAGCUGAGAGUAAAUGAATT against Clcnkb, the z-score is inactive: 0.357.

For the sequence GGAGGUAUGGCGGUGAUUATT against Krt77, the z-score was inactive: 0.718.

For GGUAUUGGAUCAUUUACAATT against Nae1, the z-score was inactive: -0.0968.

On to CCUAUCAUUCUCAAAGGGATT against Lrrn4cl, for which the z-score was inactive: -0.507.

As for GGAACUCACUACAGUUUAGTT against Dhx35, the z-score was inactive: 0.785.

For CGACUACCACACGUGGAAUTT against Hvcn1, the z-score was inactive: 1.36.

Consider GGCUCUGUGGCACACUUAUTT against Olfr1211, for which the z-score is inactive: -1.41.

Consider GGCAAAAGCAAGCUCACAGTT against Cdk16, for which the z-score is inactive: -1.18.

For GGAUCAGCUUGUUCUCAGATT against Prl8a1, the z-score was inactive: -0.23.

For the sequence GGCGAGGAGAACAUGCUGUTT against Nphp3, the z-score was inactive: 0.497.

Regarding GCUCAGACCACCUAAGAGUTT against Tmprss3, the z-score is inactive: 0.575.

GGAAAGGACUGUAGAGCGATT against Eml4: the z-score is inactive: -0.888.

Turning to CCUAUCUCACAUAGGUUUATT against Grb14, the z-score is inactive: 1.56.

Take GCAUGUGGAGAACGACUAUTT against Arhgap8: the z-score is inactive: -0.263.

Regarding GGAGAUCAACCACAAUGUUTT against Tekt1, the z-score is inactive: 1.01.

As for GGAUUGUGGGUUUAUAUAATT against Olfr835, the z-score is inactive: 0.274.

Regarding GCGACCGUAUUGUCACUUGTT against Arpc1a, the z-score was inactive: -0.465.

Take “GGGACAAUUCUGGAUUAAATT against 9330155M09Rik”: the z-score is inactive: -0.639.

GGGCCUUGAAUCUUUGUACTT against Galt: the z-score was inactive: -0.284.

As for GCAGUACGCUGCAUUUAAATT against Mtrf1l, the z-score was inactive: 0.551.

As for “GCACAGUCCAUGAAUCAGATT against 4930432K21Rik”, the z-score is inactive: -0.639.

As to CCGGCUAUGAAGAUGAGUATT against Cox6a1, the z-score is active: 3.21.

For the sequence GGAGGAGCUACUGAAAGAUTT against Wbp1l, the z-score is inactive: -0.717.

On to GUGGUUUGCUACCCAGCAUTT against Ear6, for which the z-score is inactive: 0.281.

Consider CGGAUGAAUUCCAGCUUCATT against Vdac1, for which the z-score was inactive: -1.35.

With CCAUCUCGCUACCAUGCAATT against Hmbox1, the z-score was inactive: -1.8.

As to GCUACUCAUGCUAGAUGACTT against Gba, the z-score was inactive: -1.28.

For the sequence GCCUGUGUGAUGCAACAGGTT against Ifna5, the z-score was inactive: -0.344.

Turning to GGAGAACUUCUUAUUCAGATT against Cfap161, the z-score is inactive: 0.494.

Regarding CGAACGUGAGCUACUGUGGTT against Cacnb4, the z-score was inactive: -1.19.

With UUCUUGACAGCUGGAAGAGTT against Irgc1, the z-score was inactive: 0.12.

Regarding CCAUCUGGCACUUCAACAUTT against Csnk1g1, the z-score is inactive: -1.03.

As for GCCUCUGAACGGUUUGUAATT against Leo1, the z-score was inactive: 0.829.

Regarding GCUCUUAUGUUUAAUAUGGTT against Mrps2, the z-score was inactive: -0.483.

Turning to GGACGAUAGGACCCAAAGGTT against Sh3tc1, the z-score is inactive: 0.668.

On to GUCUUCCCUCAUCCUUUGATT against Cox8a, for which the z-score is inactive: 0.902.

With GGUUUUAGGAUCCUAGAAGTT against Ap1s1, the z-score was inactive: 0.957.

In the case of CCUAUAGCAAUGGCAGCAGTT against Pkn1, the z-score was inactive: -1.66.

With GGUUUUGACAUCACAUUCUTT against Mtfr2, the z-score was inactive: 1.34.

Regarding UGAAUAAGGUGUGGUGCUCTT against Vmn1r148, the z-score is inactive: 0.607.

Regarding GGAUUUUCACCAACAGCCUTT against Gh, the z-score was inactive: 0.046.

For GGAUACACUGUUUGAAUGUTT against Cks1b, the z-score is inactive: 0.00229.

Consider GGAAAGAGGGAAACUAAUUTT against Abhd17a, for which the z-score is inactive: -0.694.

Turning to CCGAGUGGUACUUCUGUAUTT against Ift172, the z-score is inactive: -0.646.

GGCAAGAAUGUUGUCCACCTT against Dnaja4: the z-score is inactive: 0.242.

With GGAAGAUAGUGCGAUCCAATT against Adcy5, the z-score was inactive: -0.655.

On to CCUGUAAAGUCUAAAUAACTT against Tatdn1, for which the z-score was inactive: -0.581.

Turning to CCUCUGAGUGGAACACCUATT against Sfr1, the z-score is active: -3.54.

CCCACCAGUUGUCAUGAAUTT against Cnih3: the z-score is inactive: -0.513.

Regarding GGUUACUGCUCUCAUGUACTT against Olfr247, the z-score is inactive: -1.28.

For the sequence CGGGCUCUUUGACAGUUCATT against Ppt2, the z-score is inactive: -1.73.

As for GCGGCCUCUUGAAUGAUUCTT against Ccndbp1, the z-score was active: 2.16.

As for GCGCAUCCAGUGGUCCUUUTT against Trpv5, the z-score is inactive: 0.353.

Take GGAUAUUGAUUGCUUUGUUTT against Uox: the z-score was inactive: 1.41.

Take CCUACUCUUUUCAUUGACCTT against Cxcr1: the z-score was inactive: 0.108.

As for GGAAGUCAUUAUGUGAUCCTT against Nfyb, the z-score was inactive: -0.404.

GGCCACGGACAUUUGCAUGTT against Plekhf1: the z-score was inactive: 0.348.

For the sequence GGCUUUAUCAGAUCCAACCTT against Tmem108, the z-score is active: 2.47.

As to GGACAGAGGCGAUAGAAUCTT against Pou6f1, the z-score was inactive: -0.575.

For GGCAAAAACAUGAUUCUCUTT against Hjv, the z-score is inactive: -0.272.

With GGCUUUGAGCCUUAGCCUATT against Gm14461, the z-score is inactive: -0.516.

On to CCUGGUCAUUAGGCUAGGATT against Tymp, for which the z-score was inactive: -0.453.

With “GGAAGCUUCUGAGAGUAAATT against 4930503E14Rik”, the z-score is inactive: 0.13.

Regarding CAUCAUUGAACAACUUGACTT against Olfr1466, the z-score was inactive: 0.138.

GGGUCAAGCAGUGUAAAGATT against Dnajb12: the z-score is inactive: -0.529.

In the case of GGAAAUAGACACCAAGAGCTT against Mau2, the z-score is inactive: -1.64.

With GGAGAAAGCAGAGACAAUGTT against Tnfrsf13c, the z-score was inactive: -0.546.
